Data: doi:10.1101/287516
Read-outs that look alike come from different tables or passages of the source. Results are given in words; binding and its absence hold for the method and conditions named. Some entries that bind do so weakly or less than the wild type. Sequences can lack the tags named with a protein.

Protein sequences, listed by entry. Tags and fused reporters are not part of them.
UniProt P51149: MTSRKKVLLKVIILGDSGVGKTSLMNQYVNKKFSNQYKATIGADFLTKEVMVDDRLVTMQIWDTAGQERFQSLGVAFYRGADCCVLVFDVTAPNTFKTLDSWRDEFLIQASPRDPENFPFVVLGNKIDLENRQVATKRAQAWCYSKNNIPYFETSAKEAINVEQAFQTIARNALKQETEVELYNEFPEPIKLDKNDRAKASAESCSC

Assays:
GST-RabGDIα [1] = target: T1, GST-RabGDIα (UniProt P31150); assay: pull-down
T1 sequence: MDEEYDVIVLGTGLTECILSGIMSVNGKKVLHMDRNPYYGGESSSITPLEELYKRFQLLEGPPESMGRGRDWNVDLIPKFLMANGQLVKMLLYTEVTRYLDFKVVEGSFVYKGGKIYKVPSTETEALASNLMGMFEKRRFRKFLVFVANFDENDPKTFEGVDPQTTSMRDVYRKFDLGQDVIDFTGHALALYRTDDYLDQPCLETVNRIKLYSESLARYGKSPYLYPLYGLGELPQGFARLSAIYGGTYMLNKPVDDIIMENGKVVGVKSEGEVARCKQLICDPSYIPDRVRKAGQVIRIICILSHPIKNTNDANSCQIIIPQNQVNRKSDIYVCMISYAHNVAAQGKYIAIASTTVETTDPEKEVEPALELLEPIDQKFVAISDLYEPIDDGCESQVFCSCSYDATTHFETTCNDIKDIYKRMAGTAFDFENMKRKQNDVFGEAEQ

GST-RabGDIα [2] = target: T1, GST-RabGDIα; assay: pull-down; remark: listed apart in the source

Question: “recombinant prenylated Rab7 (from UniProt P51149 1-207)” was tested. Which binding (GST-RabGDIα [1]) did it give?
Answer: binds

Question: What about the binding (GST-RabGDIα [2]) of the same substance?
Answer: binds
